Results as given in paper PMC8227980 (2021).

Assay: peptide synthesis
Conditions: conjugation step

Substance | conjugation yield [%]
DBCO-E[c(RGDfK)]2 | 21.7
NODAGA-LacN-E[c(RGDfK)]2 | 35
